Earlier results as cited in patent publication US7906551B2 (Rottapharm S.p.A., priority 2006, dated 2011).
At least one compound was matched to its structure with a doubt left.

System: glaucomatous rabbits
Settings: not COX-2 dependent effect; cited from earlier work

SMILES: Cc1ccc(-c2cc(C(F)(F)F)nn2-c2ccc(S(N)(=O)=O)cc2)cc1 [Celecoxib]
- effect on intraocular pressure: reduce intraocular pressure
